Experimental data reported in the supplement of paper PMC8166895.
Structures can show the parent of a compound that is named as a salt. The list shows a part of the results. Most values lie at the level of the controls, where differences are scatter.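 A single-replicate pilot screen of approved drugs and clinical or known-target compounds measured melting temperature via differential scanning fluorimetry. Top stabilizing hits raised the melting point by 2 °C or more; negative shifts indicate destabilization.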

These compounds were tested on SARS-CoV-2 main protease (Mpro, nsp5) (assay: thermal shift ΔTm of Mpro relative to plate average Tm; higher = stronger thermal stabilization of Mpro (binding)). Settings: 10 µM; protein concentration 1 µM.
`O=S(=O)(O)CCSSCCS(=O)(=O)O` [Dimesna] was tested, and the “thermal shift ΔTm of Mpro” value was 0.24 °C.
With `CO[C@H]1C(=O)[C@]2(C)[C@@H](OC)C[C@H]3OC[C@@]3(OC(C)=O)[C@H]2[C@H](OC(=O)c2ccccc2)[C@]2(O)C[C@H](OC(=O)[C@H](O)[C@@H](NC(=O)OC(C)(C)C)c3ccccc3)C(C)=C1C2(C)C` [Cabazitaxel] the “thermal shift ΔTm of Mpro” value was -0.135 °C.
For `Clc1ccc(COC(Cn2ccnc2)c2ccc(Cl)cc2Cl)cc1` (centres undefined) [Econazole], the “thermal shift ΔTm of Mpro” value was -0.245 °C.
`Clc1ccc(COC(Cn2ccnc2)c2ccc(Cl)cc2Cl)cc1` (centres undefined) [Econazole nitrate] was tested, and the “thermal shift ΔTm of Mpro” value was -0.08 °C.
`C[C@H](CCC(=O)NCC(=O)O)[C@H]1CC[C@H]2[C@@H]3[C@H](O)C[C@@H]4C[C@H](O)CC[C@]4(C)[C@H]3C[C@H](O)[C@]12C` [Glycocholic Acid Sodium Salt] was tested, and the “thermal shift ΔTm of Mpro” value was 0.00666 °C.
In the case of `CO/N=C1\CN(c2nc3c(cc2F)c(=O)c(C(=O)O)cn3C2CC2)CC1CN` (centres undefined) [Gemifloxacin mesylate], the “thermal shift ΔTm of Mpro” value was 0.044 °C.
With `Clc1ccccc1C(c1ccccc1)(c1ccccc1)n1ccnc1` [Clotrimazole] the “thermal shift ΔTm of Mpro” value was -0.265 °C.
With `NC(=O)NO` [Hydroxyurea] the “thermal shift ΔTm of Mpro” value was 0.0535 °C.
In the case of `COc1cc2ncnc(Nc3ccc(F)c(Cl)c3)c2cc1NC(=O)/C=C/CN1CCCCC1`, the “thermal shift ΔTm of Mpro” value was 0.434 °C.
For `O=c1c(O[C@@H]2O[C@@H](CO)[C@H](O)[C@H]2O)c(-c2ccc(O)c(O)c2)oc2cc(O)cc(O)c12` [Avicularin], the “thermal shift ΔTm of Mpro” value was 0.0509 °C.
In the case of `Nc1ncnc2c1nc(Br)n2[C@@H]1O[C@@H]2COP(=O)(O)O[C@H]2[C@H]1O` [8-Bromo-cAMP], the “thermal shift ΔTm of Mpro” value was 0.176 °C.
With `CCCCC1C(=O)N(c2ccccc2)N(c2ccccc2)C1=O` [Phenylbutazone] the “thermal shift ΔTm of Mpro” value was 1.18 °C.
`O=C(Nc1ccc2[nH]nc(-c3ccncc3)c2c1)[C@@H]1CCN(CC(=O)N2CCN(c3ccc(-c4ncccn4)cc3)CC2)C1` was tested, and the “thermal shift ΔTm of Mpro” value was 0.0283 °C.
With `CCCCOC(=O)c1ccc(O)cc1` [Butylparaben] the “thermal shift ΔTm of Mpro” value was -0.0509 °C.
With `COCCCOc1cc(C[C@@H](C[C@H](N)[C@@H](O)C[C@H](C(=O)NCC(C)(C)C(N)=O)C(C)C)C(C)C)ccc1OC` [Aliskiren Hemifumarate] the “thermal shift ΔTm of Mpro” value was -0.146 °C.
For `CCCc1nc2c(C)cc(-c3nc4ccccc4n3C)cc2n1Cc1ccc(-c2ccccc2C(=O)O)cc1` [Telmisartan], the “thermal shift ΔTm of Mpro” value was -0.18 °C.
`CC(C)(C)C1CCc2c(sc(NC(=O)c3ccco3)c2C(=O)O)C1` (centres undefined) was tested, and the “thermal shift ΔTm of Mpro” value was -0.0432 °C.
With `CC(=O)/N=c1/sc(S(N)(=O)=O)nn1C` [Methazolamide] the “thermal shift ΔTm of Mpro” value was 0.0848 °C.
In the case of `CC1=CC(=O)c2ccccc2C1=O` [Menadione], the “thermal shift ΔTm of Mpro” value was 0.169 °C.
For `Cc1ccc(C(=O)N(CCCN)[C@@H](c2nc3cc(Cl)ccc3c(=O)n2Cc2ccccc2)C(C)C)cc1`, the “thermal shift ΔTm of Mpro” value was -0.174 °C.
In the case of `COC(=O)CN(c1ccc(CN(c2ccc(OCc3ccc(C)cc3)c(C(=O)OC)c2)S(=O)(=O)Cc2ccccc2)cc1)S(C)(=O)=O`, the “thermal shift ΔTm of Mpro” value was -0.0033 °C.
For `N[C@@H](CCNCc1ccc(Cl)cc1)C(=O)N1CCCCC1`, the “thermal shift ΔTm of Mpro” value was -0.0599 °C.
`C[C@@H](Oc1cc(-c2cnn(C3CCNCC3)c2)cnc1N)c1c(Cl)ccc(F)c1Cl` was tested, and the “thermal shift ΔTm of Mpro” value was -0.189 °C.
For `C[C@@H](Oc1cc(-c2cnn(C3CCNCC3)c2)cnc1N)c1c(Cl)ccc(F)c1Cl` [Crizotinib], the “thermal shift ΔTm of Mpro” value was 0.379 °C.
For `CCC(CC)(NC(=O)C(C)C)C(=O)N[C@@H](CCCN=C(N)N)C(=O)NC1(C(=O)NC(c2ccc(F)cc2)c2ccc(F)cc2)CCCC1`, the “thermal shift ΔTm of Mpro” value was -0.0596 °C.
For `COCCCOc1ccnc(C[S+]([O-])c2nc3ccccc3[nH]2)c1C` (centres undefined) [Rebeprazole sodium], the “thermal shift ΔTm of Mpro” value was -1.04 °C.
For `O=C(O)Cc1cc(I)c(Oc2ccc(O)c(I)c2)c(I)c1` [Tiratricol], the “thermal shift ΔTm of Mpro” value was -0.0767 °C.
For `Cc1cc(Nc2ncc(Cl)c(Nc3ccccc3S(=O)(=O)C(C)C)n2)c(OC(C)C)cc1C1CCNCC1`, the “thermal shift ΔTm of Mpro” value was 0.0451 °C.
`NS(=O)(=O)C#Cc1ccccc1` [Pifithrin-μ] was tested, and the “thermal shift ΔTm of Mpro” value was -0.0332 °C.
In the case of `Cc1ccc(C(=O)C(C)CN2CCCCC2)cc1` (centres undefined) [Tolperisone HCl], the “thermal shift ΔTm of Mpro” value was 0.0309 °C.
With `CC(C)(O)CNc1nc(Nc2ccnc(C(F)(F)F)c2)nc(-c2cccc(C(F)(F)F)n2)n1` [Enasidenib] the “thermal shift ΔTm of Mpro” value was 0.17 °C.
For `CNCC[C@@H](Oc1ccccc1C)c1ccccc1` [Atomoxetine HCl], the “thermal shift ΔTm of Mpro” value was 0.199 °C.
In the case of `CC(C)(C)c1cc(NC(=O)Nc2ccc(Oc3ccnc4[nH]c(=O)cnc34)cc2F)n(-c2ccccc2)n1`, the “thermal shift ΔTm of Mpro” value was -0.00572 °C.
In the case of `O=C(CCCCC(=O)Nc1c(I)cc(I)c(C(=O)O)c1I)Nc1c(I)cc(I)c(C(=O)O)c1I` [Iodipamide], the “thermal shift ΔTm of Mpro” value was -0.131 °C.
With `NS(=O)(=O)Oc1ccc2c3c(c(=O)oc2c1)CCCCC3` [Irosustat] the “thermal shift ΔTm of Mpro” value was 0.124 °C.
For `N[C@@H](CC(=O)N1CCn2c(nnc2C(F)(F)F)C1)Cc1cc(F)c(F)cc1F` [Sitagliptin phosphate monohydrate], the “thermal shift ΔTm of Mpro” value was -0.03 °C.
In the case of `N[C@@H](CC(=O)N1CCn2c(nnc2C(F)(F)F)C1)Cc1cc(F)c(F)cc1F` [Sitagliptin], the “thermal shift ΔTm of Mpro” value was 0.00208 °C.
With `O=C(NCc1ccc2c(c1)OCO2)c1c(Cl)cccc1Cl` the “thermal shift ΔTm of Mpro” value was 0.0211 °C.
For `Nc1ccccc1NC(=O)CCCCCCC(=O)Nc1ccccc1`, the “thermal shift ΔTm of Mpro” value was 0.184 °C.
With `Cn1cc(C2=C(c3cn(CCCSC(=N)N)c4ccccc34)C(=O)NC2=O)c2ccccc21` [Ro 31-8220 Mesylate] the “thermal shift ΔTm of Mpro” value was 0.0167 °C.
With `C[C@@H]1O[C@@H](O[C@H]2[C@H](Oc3cc(O)c4c(c3)O[C@H](c3ccc(O)cc3)CC4=O)O[C@H](CO)[C@@H](O)[C@@H]2O)[C@H](O)[C@H](O)[C@H]1O` [Naringin] the “thermal shift ΔTm of Mpro” value was -0.0237 °C.
In the case of `CNC(=O)Oc1cccc2ccccc12` [Carbaryl], the “thermal shift ΔTm of Mpro” value was 0.0382 °C.
With `CCOC(=O)c1cncn1[C@H](C)c1ccccc1` [Etomidate] the “thermal shift ΔTm of Mpro” value was 0.279 °C.
In the case of `C/C(O)=C(\C#N)C(=O)Nc1ccc(C(F)(F)F)cc1` [Teriflunomide], the “thermal shift ΔTm of Mpro” value was 0.189 °C.
With `COc1nc(C)cnc1NS(=O)(=O)c1cccnc1-c1ccc(-c2nnco2)cc1` [Zibotentan (ZD4054)] the “thermal shift ΔTm of Mpro” value was 0.217 °C.
In the case of `Cn1cc(/C=C/C(=O)c2cccc(F)c2)cc1/C=C/C(=O)NO`, the “thermal shift ΔTm of Mpro” value was 0.611 °C.
With `N=C(N/N=C/c1ccc(Cl)cc1)N/N=C/c1ccc(Cl)cc1` [Robenidine hydrochloride] the “thermal shift ΔTm of Mpro” value was 0.0303 °C.
For `Cc1nc(N(C)C(=O)Cc2ccc(-c3ccccn3)cc2)sc1S(N)(=O)=O` [Pritelivir (BAY 57-1293)], the “thermal shift ΔTm of Mpro” value was -0.222 °C.
`CC(=O)OCC(=O)[C@@]12OC3(CCCC3)O[C@@H]1C[C@H]1[C@@H]3CCC4=CC(=O)C=C[C@]4(C)[C@@]3(F)[C@@H](O)C[C@@]12C` [Amcinonide] was tested, and the “thermal shift ΔTm of Mpro” value was 0.152 °C.
